The results in this text go back to PubChem BioAssay AID493014 (National Center for Advancing Translational Sciences (NCATS), 2011).

The other results are listed elsewhere or left out. The main result of the screen is listed elsewhere. These columns were measured beside it and carry no call. The list favours compounds with an active or inconclusive main result. Potencies come from curve fits of mixed quality, noted in brackets.

As a reminder, the AC50 is the concentration giving half of the maximal activity seen.

The test in a line: qHTS Assay to Find Inhibitors of Chronic Active B-Cell Receptor Signaling. The conditions noted are these: ABC-DLBCL IkBa-CBG/CBR reporter, luminescence ratio (green luciferase fused to IkBa over red control in TMD8 lymphoma cells), 4 h. The method, boiled down: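 Compounds up to 46 uM were incubated four hours with TMD8 cells whose green CBG68 luciferase is fused to IkappaBalpha; red CBR luminescence normalised the signal, and concentration-effect curves were fitted to fusion, red and ratio data.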
A general note: qHTS replaces the single test concentration by a dilution series.

Where [1] appears, read: measured here: CBR red luminescence, cell number.
The mark [2] stands for this setting: measured here: IkBa-CBG green luminescence.

In the case of `CC(O)c1cc2c(s1)c1cnn(Cc3ccccc3F)c(=O)c1n2C` (stereo not given), the AC50 under setting [1] was 5.8 µM [rising, full curve].
With `O=C(CN1CCN(S(=O)(=O)c2ccc(F)cc2)CC1)Nc1ccc(Cl)c(C(F)(F)F)c1`, the AC50 under setting [1] was 35.5 µM [falling, single point].
Regarding `CN(CC(=O)Nc1ccc(Cl)c(C(F)(F)F)c1)CC(=O)NC1CCCCC1`, under setting [1], the AC50 was 2.59 µM [rising, partial curve, poor fit].
Take `C=CCC[C@@H](Cc1ccc(F)cc1)C(=O)OC[C@H](Cc1c[nH]c2ccccc12)NC(=O)[C@H](CC=C)CC(=O)N(CCO)Cc1ccccc1`: the AC50 under setting [1] was 16.4 µM [falling, single point].
As for `COc1ccc(C(c2c(C)[nH]n(C(N)=S)c2=O)C(C#N)C#N)cc1` (stereo not given), the AC50 under setting [1] is 18.4 µM [falling, single point].
On to `CNc1nc(-c2c[nH]c3ccccc23)cs1`, for which the AC50 under setting [1] is 3.66 µM [falling, full curve].
On to `CCOC(=O)/C(C#N)=C1\C(=O)N(Cc2ccccc2)c2ccccc21`, for which the AC50 under setting [1] is 35.5 µM [falling, single point].
Same read-out and setting: next, `CCOC(=O)c1cnc2nc(Cc3ccccc3)[nH]n2c1=O`: 17.8 µM [falling, single point].
On the same count and under the same terms, next, `CCOC(=O)C1CCCN(C(=O)c2ccccc2[N+](=O)[O-])C1` (stereo not given): 3.98 µM [falling, full curve].
Consider `COCCNC(=S)N/N=C(\C)c1ccccc1OC`, for which the AC50 by setting is: under setting [1], 32.6 µM [rising, single point]; under setting [2], 29.1 µM [falling, single point].
Take `Nn1c(SCC(=O)Nc2ccc(F)cc2F)nnc1-c1cccnc1`: the half-maximal activity concentration (AC50) under setting [1] is 14.1 µM [falling, partial curve].
`Cc1ccc(Cn2nc(C)c3cc(C(=O)OCC(N)=O)sc32)cc1`: the AC50 under setting [1] was 0.82 µM [rising, partial curve, poor fit].
Still for that read-out and setting: next, `COc1ccc(Br)c(C(=O)OCC(=O)NC2CCCCCC2)c1`: 29.1 µM [falling, single point].
As to `O=C(c1cccc(S(=O)(=O)N2CCOCC2)c1)N1CCN(C/C=C/c2ccccc2)CC1`, under setting [1], the AC50 was 29.1 µM [falling, partial curve, poor fit].
The same measure, in the same setting: next, `CC1C2CC(C/C2=N/NC(=O)c2cccs2)C1(C)C` (stereo not given): 15.8 µM [falling, partial curve].
Regarding `O=C(c1cc2cc(Br)ccc2o1)N1CCCCC1`, the concentration at half-maximal activity (AC50) under setting [1] is 2.51 µM [rising, partial curve].
Regarding `C=CCc1c(C)nc(SC)nc1Nc1ccccc1`, the AC50 by setting is: under setting [1], 7.31 µM [falling, partial curve, poor fit]; under setting [2], 18.4 µM [rising, partial curve, poor fit].
As for `Nn1c(SCC(=O)Nc2nccs2)nnc1C1CC1`, the AC50 under setting [1] is 2.82 µM [rising, partial curve, poor fit].
On to `CCCn1c(NC(=O)C23CC4CC(CC(O)(C4)C2)C3)nc2ccccc21`, for which the AC50 under setting [1] is 17.8 µM [rising, single point].
Take `COc1ccc2c(C)cc(SCC(=O)Nc3cc(C(N)=O)cc(C(N)=O)c3)nc2c1`: the AC50 under setting [1] was 0.794 µM [rising, full curve, poor fit].
On the same count and under the same terms, next, `CC(=O)c1ccc2c(c1)N(CCCN1CCC(CCO)CC1)c1ccccc1S2`: 20.6 µM [falling, single point].
Same read-out and setting: next, `COc1ccc2c(c1)OC[C@H]1[C@H]2N2C(=O)c3cc(Cl)ccc3NC(=O)[C@@]2(C)[C@H]1c1ccccc1`: 5.8 µM [falling, full curve]; `O=C(Cc1ccc([N+](=O)[O-])cc1)OCc1c(F)cccc1Cl`: 22.4 µM [rising, partial curve, poor fit].
Take `O=C(CN1C(=O)S/C(=C\c2ccccc2Cl)C1=O)NCCCn1ccnc1`: the AC50 under setting [1] is 12.6 µM [falling, partial curve, poor fit].
`COc1ccc(-c2[nH]c(-c3ccc4c(c3)OCO4)nc2-c2ccccc2)cc1`: the concentration at half-maximal activity (AC50) under setting [1] was 5.62 µM [falling, partial curve, poor fit].
`Oc1ccc(N=Nc2ccc3c(c2)OCCO3)c2ncccc12`: under setting [1], the AC50 is 5.62 µM [rising, single point].
In the case of `Cc1ccc(C(=O)OCC(=O)Nc2ccccc2Cl)c(O)c1`, under setting [1], the AC50 is 1.78 µM [falling, full curve].
As for `COc1cccc(Nc2sc(C(=O)c3ccc(Cl)cc3)c(N)c2C(=O)NCCc2ccc(OC)c(OC)c2)c1`, the AC50 under setting [1] was 3.16 µM [rising, single point].
`COc1ccc(NC(=O)CNC(=O)c2cccs2)cc1Cl`: the AC50 under setting [1] is 15.8 µM [rising, partial curve, poor fit].
For `C=CCC(C=C)S(=O)(=O)c1ccc(C)cc1` (stereo not given), the AC50 is 29.1 µM [rising, single point] under setting [1] and 25.9 µM [falling, partial curve, poor fit] under setting [2].
Regarding `COc1ccc(CCN2C(=O)C3C(C2=O)C2C=CC3C23CC3)cc1OC` (stereo not given), under setting [1], the AC50 was 20 µM [falling, partial curve, poor fit].
`CCCCc1ccc(NC(=O)Nc2cnccn2)cc1`: the AC50 under setting [1] is 3.55 µM [rising, full curve].
As for `CCc1ccc(NC(=O)c2ccc(F)c(S(=O)(=O)NCCc3ccc(OC)c(OC)c3)c2)cc1`, the AC50 under setting [1] is 15.8 µM [falling, single point].
The same measure, in the same setting: with `O=C(O)c1ccc(-n2nncc2-c2ccco2)cc1` the figure was 12.6 µM [rising, partial curve, poor fit].
As to `Cc1cccc(/C=C2/S/C(=N/N=C3\CC4CCC3(C)C4(C)C)NC2=O)c1` (stereo not given), the AC50 under setting [1] is 7.94 µM [rising, partial curve, poor fit].
Turning to `Cc1ccccc1-n1c(=O)/c(=C\c2ccco2)s/c1=C(/C#N)C(=O)Nc1ccccc1`, the AC50 under setting [1] is 17.8 µM [rising, partial curve, poor fit].
Turning to `O=C(NCc1cccs1)C(=O)c1cn(CC(=O)N2CCOCC2)c2ccccc12`, under setting [1], the AC50 is 11.2 µM [falling, partial curve].
As to `Cc1ccc(N2C(=O)c3ccc(C(=O)O)cc3C2=O)cc1C`, under setting [1], the AC50 is 18.4 µM [falling, single point].
Turning to `CCC1CCc2sc(C(=O)NCC(c3ccc(OC)cc3)N3CCOCC3)cc2C1` (stereo not given), the AC50 under setting [1] was 29.1 µM [rising, single point].
On to `CCCc1nnc(NC(=O)NCCN2C(=O)C3C4C=CC(C4)C3C2=O)s1` (stereo not given), for which the AC50 under setting [1] is 13 µM [rising, partial curve, poor fit].
Regarding `CN(Cc1nc(C(c2ccccc2)c2ccccc2)no1)CC1COCCO1` (stereo not given), the AC50 under setting [1] was 6.31 µM [falling, partial curve].
For `Cc1ccc(S(=O)(=O)Nc2ccccc2C(=O)OC(C)C(=O)Nc2ccc3ccccc3c2)cc1[N+](=O)[O-]` (stereo not given), under setting [1], the AC50 was 6.51 µM [rising, partial curve, poor fit].
Take `CCCOc1ccc(CSC2=NCCN2)cc1[N+](=O)[O-]`: the AC50 under setting [1] was 35.5 µM [falling, single point].
Regarding `O=C(Nc1ccccc1)Nc1ccc(Br)cc1F`, under setting [1], the AC50 was 16.4 µM [falling, single point].
Same read-out and setting: next, `O=C(CSc1nc2ccccc2nc1N1CCCC1)Nc1ccc(Cl)cc1`: 5.01 µM [falling, partial curve, poor fit]; `c1ccc(C2=NN(c3ccccc3)CC2)cc1`: 1.41 µM [rising, full curve]; `Cc1ccc2c(c1)C(=O)N1[C@H]3c4cc(C)ccc4OC[C@@H]3[C@H](c3ccccc3)[C@]1(C)C(=O)N2`: 18.4 µM [falling, single point].
As for `O=c1[nH]c(Cc2ccc(Cl)cc2)nc2ccccc12`, the AC50 under setting [1] is 15.8 µM [rising, partial curve, poor fit].
On to `Cc1csc(N(C(=O)c2cccc(S(=O)(=O)N3CCCC3)c2)c2ccccc2)n1`, for which the AC50 under setting [1] was 20.6 µM [falling, single point].
In the case of `O=C(Cc1ccccc1)N1CCN=C1SCc1ccc([N+](=O)[O-])cc1`, the concentration at half-maximal activity (AC50) under setting [1] was 29.1 µM [falling, single point].
Take `CC(C)Sc1nc2sccc2c(=O)n1-c1ccccc1`: the AC50 under setting [1] is 12.6 µM [rising, partial curve].
Turning to `O=C(Nc1ccc(Cl)cc1)OCc1cn(-c2ccc(Cl)cc2)nn1`, the AC50 under setting [1] is 3.16 µM [rising, partial curve, poor fit].
`CC(C)c1cc(C(N)=O)c(NC(=O)c2cccc(COc3ccc(Cl)cc3)c2)s1`: under setting [1], the AC50 is 13 µM [falling, single point].
On to `CCOC(=O)c1csc(NC(=O)c2cc(-c3ccccn3)nc3ccccc23)n1`, for which the half-maximal activity concentration (AC50) under setting [1] is 23.1 µM [rising, single point].
As for `Cc1ccc(C)c(N(C(=O)Cn2nnc3ccccc32)C(C(=O)NCc2ccco2)c2ccncc2)c1` (stereo not given), the concentration at half-maximal activity (AC50) under setting [1] is 0.146 µM [falling, full curve, poor fit].
Turning to `CC(=O)Oc1cccc(N2C(=O)CC(Nc3ccc(N4CCOCC4)cc3)C2=O)c1` (stereo not given), the AC50 under setting [1] is 14.6 µM [falling, partial curve].
For the compound `N#Cc1cccc(S(=O)(=O)N2CCN(c3ccnc4cc(Cl)ccc34)CC2)c1`, the concentration at half-maximal activity (AC50) under setting [1] is 15.8 µM [falling, single point].
With `O=C(NCCN1CCOCC1)c1cc2sccc2n1Cc1ccc(Cl)cc1`, the AC50 under setting [1] was 14.6 µM [rising, partial curve, poor fit].
Turning to `O=C(/C=C\c1ccccc1)NCC(=O)N/N=C/c1ccc(O)cc1O`, the AC50 under setting [1] was 3.98 µM [rising, single point].
Take `Cc1ccc2cc(-c3noc(C(C)(C)C)n3)c(=O)[nH]c2c1`: the AC50 under setting [1] was 2 µM [rising, full curve, poor fit].
`O=C(CC1N=C2c3ccccc3N=C(SCC(=O)Nc3ccc(F)cc3)N2C1=O)NCc1ccc2c(c1)OCO2` (stereo not given): the AC50 under setting [1] is 0.708 µM [falling, full curve, poor fit].
The same measure, in the same setting: with `O=C(CN1CCN(c2cccc(Cl)c2)CC1)NC1CCCc2ccccc21` (stereo not given) the figure was 35.5 µM [falling, single point].
